What was measured:
TM4 mouse Sertoli cells = experiment: Cell growth and viability (MTT), dose-response of the drugs alone; type: cell-based; settings: 48 h of exposure, drug alone, 50% fraction of cells affected (Fa), non-linear fitting
Description: Cells were maintained in standard conditions for 24 h before treatments. […] All azoles were dissolved in DMSO. In an effort to avoid a possible experimental artifact with vehicles, experiments were performed including control groups in which the effect of the drug vehicle alone was tested (vehicle control, vCTR). […] For experiments with N-acetylcysteine (NAC), 24 h after seeding cells were pre-treated for 1 h with the ROS inhibitor (1 mM) and then maintained in co-treatment with azoles for 48 h.
TM4 cells were seeded at a density of 1 × 10^4/cm^2, and cultures incubated at standard conditions in the presence or the absence of azoles to reach final concentrations ranging from 0.078 µM up to 320 µM in culture medium. Cell growth and viability were assessed at 24 and 48 h by Trypan-blue exclusion assay and MTT (3-(4,5-dimethylthiazol-2-yl)-2,5-diphenyl-2H-tetrazolium-bromide) colorimetric method (Sigma-Aldrich, St. Louis, MO, USA), quantifying the metabolic efficiency of living cells.
The Interaction Index (II) was calculated, as previously described, by modifying the Chou and Talalay equation [78]. Specifically, Chou and Talalay’s median-effect method estimates the IC50 and the sigmodicity coefficient m values using linear regression of the linearised dose-response curve. […]

[1] = system: antioxidant enzymes in TM4 cells; experiment: Antioxidant enzymatic activity assays (SOD, CAT, GPx, GR, GST); type: cell-based, mouse; settings: 3 h of exposure, vCTR = 0.46 ± 0.067
Description: The antioxidant enzymatic activities were performed spectrophotometrically, as previously described. Briefly, after 3 h of incubation with azoles, cells were washed in ice-cold PBS, resuspended in buffer containing 50 mM Tris–HCl (pH 7.4), 1% (v/v) Triton X-100, 1 mM EDTA, and then disrupted by three freeze-thawing cycles. After centrifugation (17,000 g, 10 min, 4 °C), the supernatants were collected for protein quantification and subsequently analysed.
The glutathione reductase (GR) activity was evaluated spectrophotometrically by measuring NADPH oxidation (340 nm at 25 °C). […]
Total glutathione peroxidase (GPx) activity (se-dependent and se-independent) of each cell extract was assayed spectrophotometrically by following the NADPH oxidation (340 nm). […] The glutathione transferase (GST) activity was evaluated by determining the GSH conjugation rate to 1-chloro-2,4- dinitrobenzene at 340 nm. The reaction mixture was prepared with 0.1 M potassium phosphate buffer (pH 6.5), 2 mM GSH, 1 mM 1-chloro-2,4-dinitrobenzene, and a determined amount of the supernatants.
The catalase (CAT) activity was evaluated, by monitoring at 240 nm its 10-millimolar decomposition. […]
The superoxide dismutase (SOD) activity was determined using a colourimetric activity assay (ThermoFisher Scientific—Life Technologies Corp, Carlsband, CA, USA). […]

## Clc1ccc(COC(Cn2ccnc2)c2ccc(Cl)cc2Cl)c(Cl)c1 (stereo not drawn) [MCZ, miconazole]
TM4 mouse Sertoli cells
  IC50: 34.4 ± 2.5 µM
TM4 mouse Sertoli cells; Mus musculus, TM4, 48 h
  IC50: ~34 µM
[1]
  SOD/(GPx + CAT) ratio: 0.142 ± 0.015
